From paper PMC9465040 come the findings set out here.

Results are given in words; binding and its absence hold for the method and conditions named. Some binding calls cover weakened binding; strength is not graded here. Where a sequence is shown, tags or fusion partners need not be part of it.

The target in this experiment is T1, AtTTG1 (Arabidopsis … TESTA GLABRA1), pGBKT7 (BD) fusion (Arabidopsis thaliana) (UniProt Q9XGN1).
T1 sequence: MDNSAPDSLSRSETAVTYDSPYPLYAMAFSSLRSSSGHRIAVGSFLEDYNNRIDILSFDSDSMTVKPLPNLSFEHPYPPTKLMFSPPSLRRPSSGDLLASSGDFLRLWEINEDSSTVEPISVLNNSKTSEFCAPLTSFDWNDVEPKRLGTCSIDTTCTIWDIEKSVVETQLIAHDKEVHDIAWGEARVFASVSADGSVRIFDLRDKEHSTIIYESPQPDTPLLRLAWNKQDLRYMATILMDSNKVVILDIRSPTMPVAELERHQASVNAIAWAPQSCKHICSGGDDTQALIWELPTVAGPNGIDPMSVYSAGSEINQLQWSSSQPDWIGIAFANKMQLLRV
Description: two-hybrid; pGADT7 (AD) and pGBKT7 (BD) plasmids co-transformed into yeast strain AH109; growth on SD-LW, SD-LWAH and SD-LWAH-X-α-gal medium; photographed at 5 day after incubation.

B1: AtGL3 (Arabidopsis GLABRA3), pGADT7 (AD) fusion (protein, UniProt Q9FN69 1-637)
chain: MATGQNRTTVPENLKKHLAVSVRNIQWSYGIFWSVSASQSGVLEWGDGYYNGDIKTRKTIQASEIKADQLGLRRSEQLSELYESLSVAESSSSGVAAGSQVTRRASAAALSPEDLADTEWYYLVCMSFVFNIGEGMPGRTFANGEPIWLCNAHTADSKVFSRSLLAKSAAVKTVVCFPFLGGVVEIGTTEHITEDMNVIQCVKTSFLEAPDPYATILPARSDYHIDNVLDPQQILGDEIYAPMFSTEPFPTASPSRTTNGFDQEHEQVADDHDSFMTERITGGASQVQSWQLMDDELSNCVHQSLNSSDCVSQTFVEGAAGRVAYGARKSRVQRLGQIQEQQRNVKTLSFDPRNDDVHYQSVISTIFKTNHQLILGPQFRNCDKQSSFTRWKKSSSSSSGTATVTAPSQGMLKKIIFDVPRVHQKEKLMLDSPEARDETGNHAVLEKKRREKLNERFMTLRKIIPSINKIDKVSILDDTIEYLQELERRVQELESCRESTDTETRGTMTMKRKKPCDAGERTSANCANNETGNGKKVSVNNVGEAEPADTGFTGLTDNLRIGSFGNEVVIELRCAWREGVLLEIMDVISDLHLDSHSVQSSTGDGLLCLTVNCKHKGSKIATPGMIKEALQRVAWIC
Turning to B1, the binding result is on record as “binds”.

B2: AtEGL3 (Arabidopsis ENHANCER OF GLABRA3), pGADT7 (AD) fusion (protein, UniProt Q9CAD0 1-596)
chain: MATGENRTVPDNLKKQLAVSVRNIQWSYGIFWSVSASQPGVLEWGDGYYNGDIKTRKTIQAAEVKIDQLGLERSEQLRELYESLSLAESSASGSSQVTRRASAAALSPEDLTDTEWYYLVCMSFVFNIGEGIPGGALSNGEPIWLCNAETADSKVFTRSLLAKSASLQTVVCFPFLGGVLEIGTTEHIKEDMNVIQSVKTLFLEAPPYTTISTRSDYQEIFDPLSDDKYTPVFITEAFPTTSTSGFEQEPEDHDSFINDGGASQVQSWQFVGEEISNCIHQSLNSSDCVSQTFVGTTGRLACDPRKSRIQRLGQIQEQSNHVNMDDDVHYQGVISTIFKTTHQLILGPQFQNFDKRSSFTRWKRSSSVKTLGEKSQKMIKKILFEVPLMNKKEELLPDTPEETGNHALSEKKRREKLNERFMTLRSIIPSISKIDKVSILDDTIEYLQDLQKRVQELESCRESADTETRITMMKRKKPDDEEERASANCMNSKRKGSDVNVGEDEPADIGYAGLTDNLRISSLGNEVVIELRCAWREGILLEIMDVISDLNLDSHSVQSSTGDGLLCLTVNCKHKGTKIATTGMIQEALQRVAWIC
For the molecule B2, the binding entry is on record as “binds”.
